Measurements taken from article PMC3832543.
No constants are given. Whether binding was seen depends on the method and setting. In cells and extracts the contact can be indirect. Some binding calls cover weakened binding; strength is not graded here.

Sequences of proteins named here, by UniProt entry; tags and fusion partners are left off.
UniProt O88879: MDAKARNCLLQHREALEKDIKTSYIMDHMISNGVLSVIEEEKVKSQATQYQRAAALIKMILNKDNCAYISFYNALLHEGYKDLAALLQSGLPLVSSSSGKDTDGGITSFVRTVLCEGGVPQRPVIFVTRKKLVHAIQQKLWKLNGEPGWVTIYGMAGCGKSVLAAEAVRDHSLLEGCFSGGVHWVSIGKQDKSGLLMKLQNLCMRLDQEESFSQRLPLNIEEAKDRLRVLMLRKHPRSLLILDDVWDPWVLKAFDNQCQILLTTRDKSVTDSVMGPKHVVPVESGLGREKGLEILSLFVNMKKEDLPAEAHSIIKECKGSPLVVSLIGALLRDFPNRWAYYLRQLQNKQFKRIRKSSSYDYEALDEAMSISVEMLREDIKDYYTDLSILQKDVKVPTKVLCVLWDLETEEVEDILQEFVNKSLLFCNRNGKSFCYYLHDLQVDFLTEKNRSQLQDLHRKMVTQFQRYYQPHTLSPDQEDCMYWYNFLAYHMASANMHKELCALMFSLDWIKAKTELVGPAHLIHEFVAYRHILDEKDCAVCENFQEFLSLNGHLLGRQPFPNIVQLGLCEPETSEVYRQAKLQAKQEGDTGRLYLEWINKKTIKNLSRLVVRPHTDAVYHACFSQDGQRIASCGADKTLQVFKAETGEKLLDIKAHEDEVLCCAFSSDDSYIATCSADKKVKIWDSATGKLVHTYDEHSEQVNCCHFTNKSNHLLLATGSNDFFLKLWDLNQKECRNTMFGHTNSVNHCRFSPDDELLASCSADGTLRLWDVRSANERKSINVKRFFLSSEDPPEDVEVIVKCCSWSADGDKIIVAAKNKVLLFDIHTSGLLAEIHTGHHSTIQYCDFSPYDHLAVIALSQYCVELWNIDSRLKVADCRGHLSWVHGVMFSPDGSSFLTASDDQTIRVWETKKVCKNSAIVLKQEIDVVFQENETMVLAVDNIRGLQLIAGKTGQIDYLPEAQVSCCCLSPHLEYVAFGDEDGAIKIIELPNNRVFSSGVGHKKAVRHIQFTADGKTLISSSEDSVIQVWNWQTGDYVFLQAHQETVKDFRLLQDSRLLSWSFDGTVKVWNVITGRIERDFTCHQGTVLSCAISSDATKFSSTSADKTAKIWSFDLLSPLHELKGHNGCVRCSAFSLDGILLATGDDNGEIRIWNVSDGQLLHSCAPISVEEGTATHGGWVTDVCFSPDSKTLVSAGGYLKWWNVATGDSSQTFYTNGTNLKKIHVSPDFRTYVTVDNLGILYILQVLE
UniProt P62897: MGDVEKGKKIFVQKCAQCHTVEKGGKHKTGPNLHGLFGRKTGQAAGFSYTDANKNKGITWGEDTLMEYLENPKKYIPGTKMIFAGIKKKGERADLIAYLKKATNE

How the values were obtained:
[1] = target: apoptotic peptidase activating factor 1 (mouse (endogenous in MEF)) (UniProt O88879); assay: co-IP; apoptosome complexes in bax-/- bak-/- MEF cells transfected with WT MCL-1ES; immunoprecipitation and western blot
[2] = target: apoptotic peptidase activating factor 1 (mouse (endogenous in MEF)) (UniProt O88879); assay: condition: only cells transfected with BH3M MCL-1ES instead of WT MCL-1ES; co-IP; apoptosome complexes in bax-/- bak-/- MEF cells transfected with BH3M MCL-1ES; immunoprecipitation and western blot

## cytochrome c (from UniProt P62897 1-105)
[1]
  binding: binds
[2]
  binding: no binding
